Data taken from article PMC7862700.
The list shows a part of the results, in another mix than the full data. At the low end of the ranking the order means little.

Each sequence was assayed against SPI1 (UniProt P17947) (assay: DAPPL (digital affinity profiling via proximity ligation, sequencing)). Conditions: 10 mM Tris-HCl pH 7.5, 50 mM NaCl, 1 mM DTT, 4% glycerol, room temperature, 30 min; GST-TFs on glutathione beads, 16-mer random dsDNA library, 0.1% …; high values mean tight binding; double strand, one strand shown; scale: fold enrichment (6-mer frequency, TF over GST control).

| Sequence | binding signal |
| --- | --- |
| TAGGCC | 0.938 |
| TAATCA | 1.07 |
| GCAGCC | 0.9 |
| GCGTAT | 0.974 |
| GCGATT | 0.977 |
| TTACGC | 1.07 |
| CTAGAT | 1.2 |
| CATGTT | 1.04 |
| CGATGG | 1.41 |
| TGATGA | 1.2 |
| GATCGA | 0.876 |
| CAATGA | 0.99 |
| TCCAGC | 0.852 |
| TCATCG | 0.965 |
| GCCTAG | 0.846 |
| CGTCAT | 0.958 |
| TAATGG | 1.28 |
| ATTCAA | 1.31 |
| GCAATG | 0.99 |

| Sequence | binding signal |
| --- | --- |
| TGGCAC | 1.14 |
| GTTGTA | 0.974 |
| ACCCGA | 0.945 |
| TCTGAG | 0.938 |
| CGGCCT | 0.995 |
| TCGTCT | 1.26 |
| AGGCTT | 0.914 |
| GTAGAT | 0.901 |
| GAACTA | 1.41 |
| CTGGCG | 0.867 |
| CATTGA | 0.927 |
| CCCAGA | 0.847 |
| TCAACA | 0.973 |
| TTTGTT | 1.22 |
| AGCAAC | 0.965 |
| GATCCA | 0.945 |
| CGGCCC | 0.97 |
| CAAGCT | 0.897 |
| ACGCGT | 0.922 |

Reformatted bar-delimited: entries from further up
Sequence | binding signal
CGGCCT | 0.995
AGGCTT | 0.914
GTAGAT | 0.901
CTGGCG | 0.867
CATTGA | 0.927
CAAGCT | 0.897
ACGCGT | 0.922
